Experimental data taken from PubChem BioAssay (EPA / NIEHS).
This list was built around the results that the source calls inconclusive (neither active nor inactive); the mix of calls is not that of the screen. Where the call is inconclusive, the potency comes from a doubtful curve fit. The source made the active and inactive calls. How the source made its calls: active means hit-call score of the fitted dose curve at least 0.9, where 1 is the maximum; inconclusive means response in the unintended direction; inactive means score below 0.9.

Protein sequences, listed by entry. Tags and fused reporters are not part of them. Lines headed by an entry give the natural chain unless they say otherwise; changes in a name come on top.
UniProt P51449: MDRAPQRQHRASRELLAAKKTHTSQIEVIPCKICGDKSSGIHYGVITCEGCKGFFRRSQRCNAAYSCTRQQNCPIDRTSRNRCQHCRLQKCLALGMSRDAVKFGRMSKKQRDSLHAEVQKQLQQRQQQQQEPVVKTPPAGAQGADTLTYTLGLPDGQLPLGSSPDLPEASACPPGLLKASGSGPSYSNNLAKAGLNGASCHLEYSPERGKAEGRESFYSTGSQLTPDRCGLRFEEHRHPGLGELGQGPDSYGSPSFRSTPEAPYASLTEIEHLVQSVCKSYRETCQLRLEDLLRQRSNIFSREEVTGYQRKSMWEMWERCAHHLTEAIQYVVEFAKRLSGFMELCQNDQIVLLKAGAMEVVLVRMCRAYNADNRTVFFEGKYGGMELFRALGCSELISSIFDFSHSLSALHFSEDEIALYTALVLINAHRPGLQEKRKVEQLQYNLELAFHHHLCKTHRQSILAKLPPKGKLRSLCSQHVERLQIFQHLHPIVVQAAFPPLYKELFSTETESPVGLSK
UniProt P19793: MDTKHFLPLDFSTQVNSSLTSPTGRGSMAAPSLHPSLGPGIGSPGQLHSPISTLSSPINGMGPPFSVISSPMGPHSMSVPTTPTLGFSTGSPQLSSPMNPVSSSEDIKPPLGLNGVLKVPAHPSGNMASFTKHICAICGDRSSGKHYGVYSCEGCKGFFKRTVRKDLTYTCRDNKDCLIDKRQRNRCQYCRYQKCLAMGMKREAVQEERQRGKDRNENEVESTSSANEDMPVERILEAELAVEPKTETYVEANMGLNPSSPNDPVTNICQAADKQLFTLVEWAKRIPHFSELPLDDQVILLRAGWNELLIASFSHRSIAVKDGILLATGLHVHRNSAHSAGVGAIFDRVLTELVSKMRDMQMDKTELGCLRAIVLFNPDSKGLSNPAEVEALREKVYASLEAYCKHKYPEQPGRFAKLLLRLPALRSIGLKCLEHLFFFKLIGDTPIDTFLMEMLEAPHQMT
UniProt P28702: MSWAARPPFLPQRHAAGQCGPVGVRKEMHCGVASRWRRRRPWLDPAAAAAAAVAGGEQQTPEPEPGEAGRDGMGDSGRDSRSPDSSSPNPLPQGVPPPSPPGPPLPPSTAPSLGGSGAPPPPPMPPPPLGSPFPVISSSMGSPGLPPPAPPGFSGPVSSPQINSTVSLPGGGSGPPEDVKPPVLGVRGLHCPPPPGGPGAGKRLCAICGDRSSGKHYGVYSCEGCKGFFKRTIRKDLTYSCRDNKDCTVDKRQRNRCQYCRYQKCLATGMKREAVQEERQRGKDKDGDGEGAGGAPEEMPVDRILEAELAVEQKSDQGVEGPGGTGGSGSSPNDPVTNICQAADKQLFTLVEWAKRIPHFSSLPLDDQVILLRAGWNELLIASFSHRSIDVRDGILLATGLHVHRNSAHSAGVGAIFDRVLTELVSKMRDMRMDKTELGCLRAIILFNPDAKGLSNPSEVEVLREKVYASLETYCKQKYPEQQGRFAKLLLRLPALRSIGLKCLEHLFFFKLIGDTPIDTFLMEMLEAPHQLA

The molecules below were run against human RAR-related Orphan Receptor gamma (RORg), RORC (gene 6097) (UniProt P51449) (assay: ATG_RORg_TRANS: Attagene TRANS-FACTORIAL HepG2 Assay for human RAR-related Orphan Receptor gamma (RORg) (AID 2283011);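 on AC50: potency for induction of reporter transcripts above DMSO so activators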).
Procedure, shortened: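 Transient MRTU transfection of HepG2 (TRANS format, exogenous NR-Gal4 chimera). 24 h dosing. Total RNA → oligo(dT) RT → PCR → 6-FAM labelling → HpaI cut → CE. Gain vs DMSO.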
For `CCCCCCCCCO`, the AC50 was inconclusive: 9.9 µM.
`C=C(C)C(=O)OCCOC(=O)C(=C)C` was tested, and the AC50 was inconclusive: 0.0767 µM.
For `C/C=C(\C)C(=O)OCC/C=C\CC`, the outcome was “inactive”.
For `CC(=O)C1(C)CC2=C(CCCC2(C)C)CC1C` (centres undefined), the outcome was “inactive”.
In the case of `Nc1ccc(Oc2ccc(N)c(N)c2)cc1`, the AC50 is reported as inconclusive: 100 µM.
In the case of `CCN=C1C=CC(=C(c2ccc(N(CC)CC)cc2)c2ccc(N(CC)CC)cc2)c2ccccc21`, the AC50 is reported as inconclusive: 0.0591 µM.
In the case of `COC(=O)[C@]1(C)CCC[C@@]2(C)[C@H]1CC=C1C=C(C(C)C)CC[C@@H]12`, the AC50 is reported as inconclusive: 2.42 µM.
With `CCOC(C=C(C)CCC=C(C)C)OCC` the AC50 was inconclusive: 3.81 µM.
With `CC(=O)c1ccccc1O` the AC50 was inconclusive: 100 µM.

The molecules below were run against Retinoic acid receptor RXR-alpha (Homo sapiens) (UniProt P19793) (assay: ATG_RXRa_TRANS: Attagene TRANS-FACTORIAL HepG2 Assay for human Retinoid X Receptor alpha (RXRa) (AID 2283012)).
Procedure, shortened: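 Chimeric NR-GAL4 trans-activation in HepG2, 24 h treatment; reporter transcripts quantified by fluorescence on capillary electrophoresis, analysed for upward change from DMSO.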
With `O=C(NS(=O)(=O)/C=C/c1cccs1)c1ccc(F)cc1Br` the outcome was “inactive”.
For `C=CC(C)(O)CCC=C(C)C` (centres undefined), the outcome was “inactive”.
`CC(C)CC(=O)OCc1ccccc1` was tested, and the AC50 was inconclusive: 1.35 µM.
In the case of `CC(C)c1ccc(C(=O)N=C(N)N)cc1S(C)(=O)=O`, the AC50 is reported as inconclusive: 100 µM.
`Fc1ccccc1[C@@H](F)COC1CCC(Nc2ncnc3[nH]ncc23)CC1` (some centres undefined) was tested, and the AC50 was inconclusive: 0.0111 µM.
In the case of `CCCOC(=O)c1c(Cl)c(Cl)c(Cl)c(Cl)c1C(=O)OCCC`, the outcome is reported as “inactive”.
In the case of `CC(C)(C)c1ccc(O)c(C(C)(C)C)c1`, the AC50 is reported as active: 7.27 µM.
In the case of `NCC1CCCC(CN)C1` (centres undefined), the AC50 is reported as inconclusive: 2.67 µM.
In the case of `c1cc(C(c2ccc(OCC3CO3)cc2)C(c2ccc(OCC3CO3)cc2)c2ccc(OCC3CO3)cc2)ccc1OCC1CO1` (centres undefined), the AC50 is reported as inconclusive: 82.5 µM.
For `Nc1c(Br)cc([N+](=O)[O-])cc1Br`, the outcome was “inactive”.
In the case of `C=CCCCCCCCCC=O`, the outcome is reported as “inactive”.
With `OCC(F)(F)C(F)(F)C(F)(F)C(F)(F)C(F)(F)C(F)F` the AC50 was inconclusive: 150 µM.
In the case of `CC(C)(C)c1cccc(C(C)(C)C)c1O`, the AC50 is reported as active: 68.8 µM.
`COC(=O)CC(C(C)=O)C(=O)OC` (centres undefined) was tested, and the AC50 was inconclusive: 100 µM.
In the case of `CCOC(=O)c1ccc(N)cc1`, the outcome is reported as “inactive”.
With `O=C(Nc1ccc(Cl)c(Cl)c1)c1cc(Cl)cc(Cl)c1O` the outcome was “inactive”.
For `O=C(O)C(F)(F)C(F)(F)C(F)(F)OC(F)(F)F`, the outcome was “inactive”.
With `C1CCOC1` the outcome was “inactive”.
For `O=C(O)C(c1ccc(Cl)cc1)c1ccc(Cl)cc1`, the AC50 was inconclusive: 100 µM.
With `COc1ccc(N=Nc2cc(C)c(N=Nc3ccc(S(=O)(=O)O)cc3)cc2OC)cc1` the AC50 was inconclusive: 38.6 µM.
In the case of `CCCCC(CC)COS(=O)(=O)O` (centres undefined), the AC50 is reported as inconclusive: 24.4 µM.

Each molecule was assayed against human Retinoid X Receptor beta (RXRb), RXRB (gene 6257) (UniProt P28702) (assay: ATG_RXRb_TRANS: Attagene TRANS-FACTORIAL HepG2 Assay for human Retinoid X Receptor beta (RXRb) (AID 2283013)).
Procedure, shortened: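 After a 24 h incubation with test chemical, transfected HepG2 cells carrying NR-Gal4 fusions and GAL4-UAS reporter transcription units yield RNA whose reporter cDNA is FAM-labelled, HpaI-cut and sized by capillary electrophoresis; increases over DMSO are scored.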
For `O=C(NS(=O)(=O)/C=C/c1cccs1)c1ccc(F)cc1Br`, the AC50 was inconclusive: 100 µM.
In the case of `C=CC(C)(O)CCC=C(C)C` (centres undefined), the outcome is reported as “inactive”.
`CC(C)CC(=O)OCc1ccccc1` was tested, and the outcome was “inactive”.
`CC(C)c1ccc(C(=O)N=C(N)N)cc1S(C)(=O)=O` was tested, and the AC50 was inconclusive: 27.4 µM.
With `Fc1ccccc1[C@@H](F)COC1CCC(Nc2ncnc3[nH]ncc23)CC1` (some centres undefined) the AC50 was inconclusive: 24 µM.
With `CCCOC(=O)c1c(Cl)c(Cl)c(Cl)c(Cl)c1C(=O)OCCC` the AC50 was active: 10.6 µM.
For `CC(C)(C)c1ccc(O)c(C(C)(C)C)c1`, the AC50 was active: 3.2 µM.
`NCC1CCCC(CN)C1` (centres undefined) was tested, and the AC50 was inconclusive: 1.66 µM.
In the case of `c1cc(C(c2ccc(OCC3CO3)cc2)C(c2ccc(OCC3CO3)cc2)c2ccc(OCC3CO3)cc2)ccc1OCC1CO1` (centres undefined), the AC50 is reported as inconclusive: 26.3 µM.
`Nc1c(Br)cc([N+](=O)[O-])cc1Br` was tested, and the AC50 was inconclusive: 100 µM.
For `C=CCCCCCCCCC=O`, the AC50 was active: 105 µM.
For `OCC(F)(F)C(F)(F)C(F)(F)C(F)(F)C(F)(F)C(F)F`, the AC50 was inconclusive: 150 µM.
In the case of `CC(C)(C)c1cccc(C(C)(C)C)c1O`, the AC50 is reported as active: 33.5 µM.
For `COC(=O)CC(C(C)=O)C(=O)OC` (centres undefined), the AC50 was inconclusive: 0.368 µM.
`CCOC(=O)c1ccc(N)cc1` was tested, and the AC50 was inconclusive: 100 µM.
With `O=C(Nc1ccc(Cl)c(Cl)c1)c1cc(Cl)cc(Cl)c1O` the outcome was “inactive”.
`O=C(O)C(F)(F)C(F)(F)C(F)(F)OC(F)(F)F` was tested, and the AC50 was inconclusive: 150 µM.
For `C1CCOC1`, the outcome was “inactive”.
`O=C(O)C(c1ccc(Cl)cc1)c1ccc(Cl)cc1` was tested, and the AC50 was inconclusive: 100 µM.
In the case of `COc1ccc(N=Nc2cc(C)c(N=Nc3ccc(S(=O)(=O)O)cc3)cc2OC)cc1`, the AC50 is reported as inconclusive: 100 µM.
For `CCCCC(CC)COS(=O)(=O)O` (centres undefined), the AC50 was inconclusive: 100 µM.
